Values quoted from earlier work as cited in patent US20110104137A1, “ADJUNCTS AND COMPLEXES FOR IMPROVING HMG-CoA REDUCTASE INHIBITOR (STATIN) AND SELECTIVE PHOSPHODIESTERASE 5 INHIBITOR THERAPY” (ChronoRX LLC, an Alaska Limited Liability Company, priority 2009, published 2011).

Experiments:
[1] = system: apoB-100; conditions: high-dose
[2] = system: ADMA

For CC(C)c1c(C(=O)Nc2ccccc2)c(-c2ccccc2)c(-c2ccc(F)cc2)n1CC[C@@H](O)C[C@@H](O)CC(=O)O [atorvastatin], the “total plasma levels of oxidized phospholipids and immune complexes on apoB-100” value [1] is listed as “reduces total plasma levels of oxidized phospholipids and immune complexes present on apoB-100”, the “effect on plasma ADMA, contradictory study” value ([2]; contradictory study (201)) is listed as “decrease in plasma ADMA” and the “effect on plasma ADMA” value ([2]; in vivo) is listed as “no effect”.
